Measured values taken from patent publication US11091462B2, “(Hetero)arylamide compound for inhibiting protein kinase activity” (Shenzhen TargetRx, Inc., priority 2017, dated 2021).
Some entries share one result that the patent states for a list of compounds.

System: Ba/F3 Bcr-Abl^T315I cells
Test: Cytotoxicity experiment, Ba/F3 Bcr-Abl T315I cells (CellTiter-Glo)
Format: cell-based
Conditions: IC50 of the Ba/F3 parent cells divided by the IC50 of Ba/F3 Bcr-Abl^T315I
Procedure: Example 13: Cytotoxicity Experiment
The inhibitory effect of the Example compounds on the activity of Ba/F3 parent cell, Ba/F3 Bcr-Abl^T315I cell was examined.
1. Preparation of cell plate: Ba/F3 parental cells, Ba/F3 Bcr-Abl^T315I cells were seeded in 96-well plates, and 8 ng/ml IL-3 was added to Ba/F3 parental cells. The cell plates were placed in carbon dioxide culture and incubated overnight.
2. Preparation of test compounds: The test compounds were dissolved in DMSO and subjected to a 3.16-fold gradient dilution in triplicate, 9 concentrations were obtained, starting from the concentration of 10 μM.
3. Treatment of Cells with compounds: Compounds at various concentrations were transferred to cell plates. The cell plates were incubated in a carbon dioxide incubator for 3 days.
4. Detection: CellTiter-Glo4 reagent was added to the cell plates, which were incubated for 30 minutes at room temperature to stabilize the luminescence signal. Readings were performed using a PerkinElmer Envision multi-label analyzer.

## O=C(Nc1ccc(OC(F)(F)Cl)cc1)c1cnc(N2CC[C@@H](O)C2)c(-c2cnccn2)c1 [Example 1, (R)-6-(3-hydroxypyrrolidin-1-yl)-5-(pyrazin-2-yl)-N-(4-(chlorodifluoromethoxy)phenyl)nicotinamide]
  therapeutic index: greater than 200
